The values that follow come from PubChem BioAssay AID1487 (National Center for Advancing Translational Sciences (NCATS), 2009).

This is one part of the list. Shown are side measurements of this screen, not its main read-out; they come without a call. Compounds called inactive in the main read-out are mostly missing here. Potencies come from curve fits of mixed quality, noted in brackets.

The nature of the experiment: qHTS Assay for Modulators of Lamin A Splicing. The note with it: HeLa LMNA splicing GFP/RFP minigene ratio, 48 h. In short, it runs like this:
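S3 HeLa stable clones carrying a lamin A-EGFP splicing minigene plus DsRed2 were seeded at 600 cells/well in Opti-MEM with 2% FBS, pin-dosed and incubated 48 h at 37°C. Acumen cytometry (488 nm) gave the GFP/RFP total-intensity ratio.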
In general terms: qHTS replaces the single test concentration by a dilution series.

The mark [1] stands for this setting: measured here: GFP splicing reporter channel.
[2] abbreviates: measured here: RFP viability control channel.

The term AC50 denotes the concentration at which the activity in the assay is half-maximal. As to `O=C(Nc1ccc(F)cc1)C(Sc1nc2ccccc2[nH]1)c1ccccc1` (centres undefined), the half-maximal activity concentration (AC50) by setting is: under setting [1], 7.08 µM [rising, partial curve]; under setting [2], 10 µM [rising, partial curve].

Take `Cc1cccc(NCC(=O)NNC(=S)Nc2ccccc2)c1`: the concentration at half-maximal activity (AC50) under setting [2] is 0.0794 µM [rising, full curve, poor fit].

Regarding `Cc1cccc(-c2nnc(SCc3nc4ccccc4[nH]3)n2Cc2ccco2)c1`, the AC50 is, setting by setting: under setting [1], 35.5 µM [rising, single point]; under setting [2], 35.5 µM [rising, single point].

For the compound `COc1ccc(OC)c(NC(=O)c2c(NC(=O)CCC(=O)O)sc3c2CCCCC3)c1`, the AC50 under setting [1] is 35.5 µM [rising, single point].

With `Cc1cc(NC(=O)CSc2nc(-c3cccs3)cc(C(F)(F)F)n2)no1`, under setting [2], the AC50 is 2 µM [rising, full curve].

For `Clc1nnc(NN=C2CCCC2)c2ccccc12`, the concentration at half-maximal activity (AC50) by setting is: under setting [1], 3.55 µM [rising, single point]; under setting [2], 2.82 µM [rising, single point].

As to `CC(C)(C=O)Cc1cc(C(C)(C)C)c(O)c(C(C)(C)C)c1`, the AC50 under setting [1] was 35.5 µM [falling, single point].

For the compound `Oc1c(C(c2cccs2)N2CCN(c3cccc(Cl)c3)CC2)sc2ncnn12` (centres undefined), the half-maximal activity concentration (AC50) under setting [2] is 10 µM [rising, partial curve].

For the compound `CC1CCN(c2ccc(-c3cccc(NS(=O)(=O)c4ccc(Cl)s4)c3)nn2)CC1`, the AC50 under setting [2] was 10 µM [rising, partial curve, poor fit].

As to `O=C(OCC(=O)N1CCN(C(=O)c2ccco2)CC1)c1ccccc1OCc1ccccc1`, under setting [2], the concentration at half-maximal activity (AC50) was 0.00447 µM [rising, full curve, poor fit].

For `Cc1ccc(C)c(N2CCN(C(=O)c3ccc(CSc4nc5ccncc5[nH]4)cc3)CC2)c1`, the half-maximal activity concentration (AC50) by setting is: under setting [1], 1.58 µM [rising, partial curve]; under setting [2], 11.2 µM [rising, partial curve].

As for `COc1ccccc1NC(=S)NCCSc1ccc(C)cc1`, the AC50 under setting [2] was 10 µM [rising, partial curve, poor fit].

For the compound `OC1(c2cccc(C(F)(F)F)c2)CCN(c2ncnc3c2[nH]c2ccc(F)cc23)CC1`, the half-maximal activity concentration (AC50) runs as follows: under setting [1], 35.5 µM [falling, single point]; under setting [2], 3.55 µM [rising, partial curve].

As for `O=C1CCCN1CC1CCCN(Cc2nc(COc3ccccc3)no2)C1` (centres undefined), the AC50 under setting [2] is 35.5 µM [falling, single point].

With `COc1ccc(-n2cc(-c3ccccc3)[n+]3c2CCCCC3)cc1`, the AC50 under setting [1] is 35.5 µM [falling, single point].

Consider `COc1ccc(C2C(C#N)=C(N)Oc3n[nH]c(C)c32)cc1CN1CCN(c2ccc(F)cc2)CC1` (centres undefined), for which the AC50 is, setting by setting: under setting [1], 35.5 µM [falling, single point]; under setting [2], 22.4 µM [falling, single point].

Turning to `c1ccc(-c2nc(-n3ccnc3)nc(-n3ccnc3)n2)cc1`, the AC50 was 35.5 µM [rising, single point] under setting [1] and 22.4 µM [rising, single point] under setting [2].

For `NS(=O)(=O)c1ccc(CCNC(=O)CN2CCN(c3cccc(Cl)c3)CC2)cc1`, the half-maximal activity concentration (AC50) under setting [1] was 2.51 µM [falling, single point].

Take `Clc1ncc(Cn2cccn2)s1`: the AC50 under setting [1] was 0.02 µM [falling, full curve, poor fit].

Regarding `CCOC(=O)c1c(NC(=O)c2ccccc2Cl)sc2c1CCc1ccccc1-2`, the concentration at half-maximal activity (AC50) reads like this: under setting [1], 7.08 µM [rising, single point]; under setting [2], 14.1 µM [rising, partial curve].

With `Cc1ccc(S(=O)(=O)Nc2ccc(-c3ccc(N4CCCCCC4)nn3)cc2)cc1C`, the half-maximal activity concentration (AC50) by setting is: under setting [1], 0.1 µM [falling, full curve]; under setting [2], 0.00282 µM [falling, full curve].

Take `CCOc1ccc(/C(O)=C2/C(=O)C(=O)N(c3cc(C)on3)C2c2ccc(C(=O)OC)cc2)cc1` (centres undefined): under setting [2], the AC50 is 31.6 µM [rising, single point].

On to `CCn1c(/C=C/c2ccc([N+](=O)[O-])o2)nc2ccccc2c1=O`, for which the half-maximal activity concentration (AC50) runs as follows: under setting [1], 5.62 µM [falling, full curve]; under setting [2], 4.47 µM [falling, full curve].

Regarding `COc1cc(S(=O)(=O)N2CCN(C(=O)c3ccccc3F)CC2)c(OC)cc1NC(C)=O`, the half-maximal activity concentration (AC50) under setting [1] was 14.1 µM [rising, single point] and the concentration at half-maximal activity (AC50) under setting [2] was 15.8 µM [rising, single point].

Regarding `Cc1ccc(N(C(=O)c2ccc(S(=O)(=O)N3CCOCC3)cc2)C2C=CS(=O)(=O)C2)cc1C` (centres undefined), the AC50 under setting [1] was 0.02 µM [rising, full curve, poor fit].

In the case of `O=C(C1CCCC1)N1CCN=C1SCc1cccc([N+](=O)[O-])c1`, the AC50 under setting [2] was 1.41 µM [falling, partial curve, poor fit].

As for `CCOC(=O)Cc1nc(-c2ccccc2)n[nH]1`, under setting [2], the AC50 is 0.01 µM [rising, full curve, poor fit].

`CCOC(=O)c1c(C=O)c(C)n(Cc2ccc(Cl)cc2)c1C`: the concentration at half-maximal activity (AC50) under setting [2] was 35.5 µM [rising, single point].

Turning to `CCCCN(C)C(=O)CCCCn1c(=O)[nH]c2cc(OCC)c(OCC)cc2c1=O`, the half-maximal activity concentration (AC50) under setting [2] is 0.1 µM [rising, partial curve, poor fit].

For the compound `CCN(CC)c1ccc(NC(=O)COc2ccc(C#N)cc2)cc1S(=O)(=O)Nc1ccc(OC)cc1`, the half-maximal activity concentration (AC50) under setting [2] is 5.62 µM [rising, full curve, poor fit].

On to `COc1ccc(NC2=C(NCCO)C(=O)c3ccccc3C2=O)cc1`, for which the concentration at half-maximal activity (AC50) under setting [1] was 10 µM [rising, partial curve].

Turning to `CC1CCN(C(=S)Nc2ccc3nc4n(c(=O)c3c2)CCCCC4)CC1`, the concentration at half-maximal activity (AC50) under setting [2] was 20 µM [rising, partial curve].

For `Cc1cc2c(n1-c1ccc(C(=O)NCC(C)c3ccccc3)cc1)CCCC2` (centres undefined), under setting [2], the AC50 was 15.8 µM [rising, single point].

Regarding `COc1ccccc1-c1nc(NCc2cccs2)c2ccccc2n1`, the AC50 by setting is: under setting [1], 12.6 µM [falling, partial curve]; under setting [2], 14.1 µM [falling, partial curve].

With `CCn1c(C(C)NC(=O)c2ccccc2C)n[nH]c1=S` (centres undefined), the concentration at half-maximal activity (AC50) under setting [2] is 1.26 µM [falling, partial curve].

Turning to `CS(=O)(=O)Nc1cccc(-c2ccc3ncnc(Nc4ccc(F)cc4)c3c2)c1`, the AC50 is, setting by setting: under setting [1], 20 µM [falling, partial curve]; under setting [2], 25.1 µM [falling, partial curve].

In the case of `O=C(O)/C=C/C(=O)Nc1ccc(OC(F)(F)F)cc1Br`, under setting [1], the AC50 was 31.6 µM [falling, partial curve, poor fit].

As to `Cc1ccc(C)c(NC(=O)c2ccc(=O)n(Cc3ccc(F)cc3)c2)c1`, under setting [1], the concentration at half-maximal activity (AC50) is 0.708 µM [falling, full curve, poor fit].

`COC(=O)c1cccc(NC(=O)Cc2nc(-c3ccccc3)sc2-c2ccc(C)cc2)c1`: the AC50 under setting [2] was 0.398 µM [rising, full curve, poor fit].

As for `COCCNCCCOc1ccc(Cl)cc1Br`, the AC50 under setting [1] was 1 µM [falling, full curve, poor fit].

As for `Fc1ccccc1CNC(=S)Nc1ccc(Cl)cc1`, under setting [2], the AC50 was 35.5 µM [rising, single point].

Take `CCOc1ccc(CC(=O)NCCS(=O)(=O)N2CCN(c3ccccc3OC)CC2)cc1`: under setting [1], the AC50 is 35.5 µM [falling, single point].

For `Cc1cc(C)n(CCc2nc(-c3ccc(C(C)(C)C)cc3)cs2)n1`, the AC50 under setting [2] is 35.5 µM [rising, partial curve].

In the case of `COc1ccc(-c2ccc(NS(=O)(=O)c3ccccc3)cc2)nn1`, the half-maximal activity concentration (AC50) under setting [2] is 14.1 µM [falling, partial curve, poor fit].

With `CN(C)CCNC(=O)Cc1ncc(C(F)(F)F)cc1Cl`, under setting [1], the AC50 is 0.501 µM [rising, full curve].

As to `O=C(N/N=C/c1cn(CCOc2ccccc2)c2ccccc12)c1ccncc1`, the AC50 reads like this: under setting [1], 14.1 µM [rising, partial curve]; under setting [2], 15.8 µM [rising, single point].

`O=C(COC(=O)c1ccccc1Nc1ccc(SC(F)F)cc1)NC1CC1`: the concentration at half-maximal activity (AC50) under setting [2] was 14.1 µM [rising, partial curve].

Take `CCCc1cc2c(=O)c(-c3ccc4c(c3)OCCO4)coc2cc1OS(C)(=O)=O`: the AC50 under setting [2] is 35.5 µM [rising, single point].

As for `COC(=O)COc1cccc2c(=O)n(CC(=O)NCCc3ccc(OC)c(OC)c3)ccc12`, the half-maximal activity concentration (AC50) runs as follows: under setting [1], 0.00891 µM [falling, full curve]; under setting [2], 0.0316 µM [falling, full curve, poor fit].

As to `O=C1OCC2=C1C(c1ccc(F)cc1)c1cc3c(cc1N2)OCO3` (centres undefined), the concentration at half-maximal activity (AC50) is 0.282 µM [falling, full curve] under setting [1] and 0.0631 µM [falling, full curve, poor fit] under setting [2].

Take `CCOC(=O)c1cc(-c2ccccc2)n(CCC(=O)Nc2ccc(OC)c(Cl)c2)c1C`: under setting [1], the AC50 was 12.6 µM [rising, partial curve, poor fit].

`C=CC1=C2C=C(C3CC3)N(CCCN(CC)CC)C=C2C(=O)C(C)(OC(=O)c2ccco2)C1=O` (centres undefined): under setting [2], the AC50 was 0.00447 µM [falling, full curve].

With `N#Cc1c(NCCN)nc(-c2ccco2)c2c1CCCC2`, the AC50 under setting [2] is 12.6 µM [rising, single point].

`O=C(O)c1cc(O)c2c(c1)[C@H]([C@H]1c3cc(C(=O)O)cc(O)c3C(=O)c3c(O[C@@H]4OC(CO)C(O)C(O)C4O)cccc31)c1cccc(O[C@@H]3OC(CO)C(O)C(O)C3O)c1C2=O` (some centres undefined): the concentration at half-maximal activity (AC50) under setting [1] is 35.5 µM [falling, single point] and the AC50 under setting [2] was 14.1 µM [falling, single point].

With `CC(C)CNC(=S)NNC(=O)c1csc2c1CCCC2`, under setting [2], the AC50 is 14.1 µM [rising, single point].

With `COc1ccc2[nH]cc(CCNc3ncnc4ccc(-c5ccccc5OC)cc34)c2c1`, the half-maximal activity concentration (AC50) was 22.4 µM [falling, single point] under setting [1] and 25.1 µM [falling, single point] under setting [2].
